Drawing on PubChem BioAssay AID445 (National Center for Advancing Translational Sciences (NCATS), 2006), this text covers AC50 for 63 compounds.

This is one part of the list. These are further read-outs of the screen, such as a control signal, another cell line or another target. No call is given for them. Compounds called inactive in the main read-out are mostly missing here. Potencies come from curve fits of mixed quality, noted in brackets.

The assay is described as follows: IkB Signaling. The note with it: ABC-DLBCL IkBa-CBG/CBR dual luciferase ratio (green luciferase fused to IkBa over red control in OCI-Ly3 lymphoma cells), 4 h. The procedure, abridged:
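Luminescence ratio of IκBα-fused green versus native red beetle luciferase in OCI-Ly3 cells, 4 h post-doxycycline with compound; red signal alone, scaled from basal (0%) to zero light (-100%), flagged nonspecific or cytotoxic effects.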

Where [1] appears, read: measured here: control luc red channel unless noted.

For the compound `Cc1ccc(Cn2c(CN3CCC(C(=O)NCc4ccccc4C)CC3)cc3ccccc32)cc1`, the AC50 under setting [1] was 7.94 µM [falling, full curve].

Regarding `C=CCOC(=O)c1[nH]c2c(c1C)C(=O)CC(c1cc(OC)c(OC)c(OC)c1)C2` (centres undefined), the AC50 under setting [1] was 3.98 µM [falling, full curve, poor fit]. Regarding `COc1ccc(NC(=O)C2COc3ccccc3C2)cc1Cl` (centres undefined), the AC50 under setting [1] is 1 µM [rising, full curve]. For the compound `Cc1ccc(NC(=O)CCOc2ccccc2)cc1`, the AC50 under setting [1] is 0.126 µM [rising, full curve]. Still for that read-out and setting: in the case of `COC(=O)c1ccc(NC(=O)CCS(=O)(=O)c2ccc(Br)s2)cc1` it was 15.8 µM [falling, partial curve, poor fit]; in that of `CCc1ccc(NC(=O)CSc2nc3ccccc3nc2Cc2ccc(C)cc2)cc1`, 0.126 µM [falling, full curve, poor fit]; in that of `Cc1nnc(N2C(=O)c3oc4ccccc4c(=O)c3C2c2ccc(C(C)(C)C)cc2)s1` (centres undefined), 0.794 µM [rising, full curve]. Consider `COc1ccc(C(=O)CSc2nc(C)cc(C)c2C(=O)Nc2ccccc2C)cc1`, for which the AC50 under setting [1] is 3.16 µM [falling, partial curve].

For `COc1ccc(Cl)cc1NC(=O)Cn1ncc2c3ccccc3n(C)c2c1=O`, the half-maximal activity concentration (AC50) is, setting by setting: (measured here: IkB-luc green channel) 31.6 µM [rising, single point]; (measured here: control luc red channel) 25.1 µM [rising, partial curve]. Regarding `CCCN(Cc1cccs1)C(=O)Nc1cc(Cl)ccc1C`, the concentration at half-maximal activity (AC50) under setting [1] was 10 µM [falling, partial curve].

In the case of `Cc1ccc2[nH]c3c(=O)n(CC(=O)NCc4ccco4)ncc3c2c1`, the AC50 under setting [1] is 0.00631 µM [rising, full curve, poor fit].

Regarding `O=C(NCc1ccc(Cl)cc1)c1ccc2c(Cl)c3c(nc2c1)CCCC3`, the half-maximal activity concentration (AC50) under setting [1] was 7.94 µM [falling, full curve].

`Cc1ccc(C)c(N2CCN(C(=O)CCC(=O)Nc3ccc4nc(N5CCCCC5)cc(C)c4c3)CC2)c1`: under setting [1], the AC50 was 3.16 µM [falling, partial curve].

With `C=CCn1c(SCc2ccccc2C#N)nnc1-c1cc(Br)ccc1O`, the concentration at half-maximal activity (AC50) under setting [1] is 15.8 µM [falling, partial curve]. Turning to `CCOC(=O)c1cccc(NC(=O)CCCn2nc(C)c3c(C)n(-c4ccccc4)nc3c2=O)c1`, the AC50 under setting [1] is 6.31 µM [falling, partial curve]. For `CCOC(=O)c1c(C)n(-c2ccccc2)c2ccc(OC(=O)c3ccccc3NC(=O)C(C)C)cc12`, under setting [1], the half-maximal activity concentration (AC50) is 0.794 µM [rising, full curve]. In the case of `O=C(NCc1ccccc1F)C1CCN(c2nnc(-n3cccc3)s2)CC1`, under setting [1], the AC50 is 2 µM [falling, full curve]. For the compound `COc1ccccc1NC(=O)CSc1nnc(-c2ccccc2C)o1`, under setting [1], the AC50 is 39.8 µM [falling, single point]. In the case of `COc1ccc2c(c1)c(=O)c(C(=O)c1ccccc1)cn2CC(=O)Nc1ccc2c(c1)OCCO2`, the half-maximal activity concentration (AC50) under setting [1] was 20 µM [falling, single point]. As for `COCCNC(=O)c1ccc2c(=O)n(CCc3ccccc3)c(SCC(=O)CC(=O)OC)nc2c1`, the AC50 under setting [1] is 12.6 µM [falling, partial curve]. On to `COc1cccc(-c2nc(S(=O)(=O)c3ccccc3)c(N3CCCCC3)o2)c1`, for which the half-maximal activity concentration (AC50) under setting [1] is 20 µM [falling, partial curve]. On the same count and under the same terms, the value for `CCC(C)NC(=O)CSc1nc2cc3c(cc2c(=O)n1CCCC(=O)NCCc1ccc(OC)c(OC)c1)OCO3` (centres undefined) was 7.94 µM [rising, partial curve, poor fit]. Turning to `COc1ccccc1CNC(=O)c1ccc(CS(=O)(=O)c2c(Cl)cccc2Cl)o1`, the AC50 under setting [1] was 20 µM [falling, single point]. As to `CCc1ccc(CNC(=O)c2c3c(nc4ccccc24)C(=O)N(C2CCCCC2)C3)cc1`, the AC50 under setting [1] was 25.1 µM [falling, partial curve].

For the compound `Cn1c(C(C#N)C2=C(Cl)C(=O)N(c3ccccc3)C2=O)nc2ccccc21` (centres undefined), the AC50 under setting [1] was 12.6 µM [falling, partial curve]. Regarding `Cc1ccccc1OCCCCn1c(-c2ccc(Cl)cc2)nc2ccccc2c1=O`, under setting [1], the half-maximal activity concentration (AC50) is 0.794 µM [falling, partial curve].

For the compound `CCOC(=O)c1ccc(N2C(=O)c3[nH]nc(-c4ccc(C)cc4)c3C2c2ccc(O)c(OCC)c2)cc1` (centres undefined), under setting [1], the AC50 was 3.16 µM [falling, full curve]. Consider `COc1cc2c(=O)c(C(=O)c3ccc(C)c(C)c3)cn(Cc3ccccc3F)c2cc1OC`, for which the AC50 under setting [1] was 31.6 µM [falling, single point]. On to `COc1ccc(Nc2nc(-c3cccc(Cl)c3)c3c(n2)-c2ccccc2OC3)cc1`, for which the concentration at half-maximal activity (AC50) under setting [1] is 7.94 µM [rising, single point]. On the same count and under the same terms, in the case of `CCOc1ccccc1CNC(=O)Cc1ccc(NC(=O)N2CCCCc3ccccc32)cc1` it was 12.6 µM [falling, partial curve]. Still for that read-out and setting: the value for `CCOc1ccc(NC(=O)CSc2nc3ccsc3c(=O)n2C(C)CC)cc1` (centres undefined) was 0.2 µM [falling, full curve, poor fit]; that for `CCOc1ccc(CCNC(=O)CCc2c(C)nc3c(c(C)nn3-c3ccc(C)c(C)c3)c2C)cc1` was 31.6 µM [falling, single point]. In the case of `Cc1cccc2c1-c1sc(C(=O)N3CCN(c4ccccc4)CC3)cc1CO2`, the AC50 under setting [1] is 0.631 µM [falling, full curve]. For `COc1ccc(-c2noc(N3CCC(C(=O)N4CCN(c5ccccc5OC)CC4)CC3)n2)cc1`, under setting [1], the AC50 is 15.8 µM [falling, partial curve]. Take `Cc1ccc2nc(NCc3ccccc3)c3nnnn3c2c1`: the AC50 under setting [1] was 3.16 µM [rising, full curve]. Still for that read-out and setting: the value for `CCOc1cccc(Nc2nn(-c3ccc(OC(F)(F)F)cc3)nc2C(C)=O)c1` was 10 µM [falling, partial curve]. On to `CCOC(=O)c1cnc2c(C)c(Cl)ccc2c1NCCc1ccc(OC)c(OC)c1`, for which the AC50 under setting [1] is 12.6 µM [falling, partial curve].

For the compound `COc1ccc(-c2nc3ccccc3s2)cc1O`, the AC50 under setting [1] is 6.31 µM [falling, partial curve]. With `Cc1nnc(C)n1-c1ccc(C(=O)Nc2cccc(Br)c2)cc1`, the half-maximal activity concentration (AC50) under setting [1] is 0.631 µM [rising, full curve, poor fit]. On to `COc1cccc(N2CCN(c3c4c(nc5nncn35)CCC4)CC2)c1`, for which, under setting [1], the AC50 was 39.8 µM [falling, single point]. In the case of `Cc1cccc(Cn2cc3c(=O)n(CC(=O)Nc4c(C)cccc4C)nc-3c3cc(F)ccc32)c1`, under setting [1], the AC50 is 31.6 µM [falling, single point]. Regarding `CCOC(=O)c1cnc(SCC(=O)c2ccc3c(c2)OCCO3)nc1N`, under setting [1], the AC50 was 20 µM [falling, partial curve]. The same measure, in the same setting: in the case of `O=C1C(c2ccccn2)=[N+]([O-])c2ccccc21` it was 31.6 µM [falling, partial curve, poor fit]; in that of `COC(=O)c1cc2oc3ccccc3c2n1Cc1nc(-c2ccccc2Cl)oc1C`, 1.26 µM [rising, full curve]; in that of `O=C(NCCN1CCN(c2ccccc2)CC1)Nc1cccc(Br)c1`, 39.8 µM [falling, single point].

Regarding `Cc1ccc(NC(=O)C2CCN(S(=O)(=O)c3c(C)noc3C)CC2)cc1`, the AC50 under setting [1] is 6.31 µM [falling, partial curve].

With `CCOC(=O)c1cnn(-c2ccc(C(=O)Nc3ccc(OC(F)(F)F)cc3)cc2)c1N`, the AC50 under setting [1] is 0.00794 µM [rising, full curve, poor fit]. With `Fc1ccc(-c2nnn(Cc3nc4ccccc4s3)n2)cc1`, the AC50 under setting [1] is 39.8 µM [falling, single point]. Turning to `CCOC(=O)c1ccc(NC(=O)C2CC(=O)NC(=Nc3ccc(C)c(C)c3)S2)cc1` (centres undefined), the AC50 under setting [1] was 20 µM [falling, partial curve]. Still for that read-out and setting: the value for `CCCCN(C)CCNC(=O)c1ccc(Cn2c(=O)[nH]c3cc(OC)c(OC)cc3c2=O)cc1` was 0.501 µM [falling, full curve, poor fit]; that for `CCc1ccc(CNC(=O)c2ccc3c(Cl)c4c(nc3c2)CCCC4)cc1` was 15.8 µM [falling, partial curve].

In the case of `Cc1ccc(C)c(NC(=O)Cn2cc(C(=O)C3CCCCC3)c3ccccc32)c1`, the AC50 under setting [1] was 20 µM [falling, single point]. Same read-out and setting: the value for `O=C(CN1CCCN(Cc2ccc(Cl)cc2)S1(=O)=O)Nc1ccccc1F` was 39.8 µM [falling, single point]; that for `COc1cccc2c1Oc1ncccc1N(C(=O)CCC(=O)NCc1ccc(N(C)C)cc1)C2` was 31.6 µM [falling, single point]; that for `COc1ccccc1NC(=O)c1ccc2c(Cl)c3c(nc2c1)CCCC3` was 3.16 µM [falling, partial curve]. In the case of `CCOC(=O)c1c(C)[nH]c(C)c1S(=O)(=O)N1CCC(C(=O)N2CCN(c3ccc(Cl)cc3)CC2)CC1`, the AC50 under setting [1] was 31.6 µM [falling, partial curve]. As to `CCOc1ccc(NC(=O)N2CC=C(c3c[nH]c4ccccc34)CC2)cc1`, the AC50 under setting [1] is 5.01 µM [falling, partial curve]. Consider `COC(=O)c1ccc(Cl)cc1NC(=O)N1CCCn2nc(C)cc21`, for which the AC50 under setting [1] was 1.58 µM [rising, partial curve]. Still for that read-out and setting: the value for `CCCCOC(=O)CSc1nnc(-c2ccccc2)o1` was 0.158 µM [falling, full curve]; that for `CC(=O)Nc1nonc1-c1nnc(SCC(=O)Nc2cc(C)cc(C)c2)n1C` was 31.6 µM [falling, single point]. Consider `Cc1ccc(C)c(N2CCN(C(=O)CN3CCSc4ccc(S(=O)(=O)N(C)C)cc43)CC2)c1`, for which the AC50 under setting [1] was 2.51 µM [falling, full curve]. Regarding `COc1ccccc1CNc1ccc(-c2nc(C)no2)cc1[N+](=O)[O-]`, under setting [1], the AC50 was 10 µM [falling, partial curve].

As to `Cc1oc2ncn(CC(C)C)c(=O)c2c1C(=O)N1CCN(c2ccc(F)cc2)CC1`, the half-maximal activity concentration (AC50) under setting [1] is 0.2 µM [rising, full curve].
